Reference: article PMC9658070
Results are given in words; binding and its absence hold for the method and conditions named. In cells and extracts the contact can be indirect. These calls come from enrichment with a bait or labelling near it, and not all partners need be listed.

The chains behind the UniProt entries cited, without tags or fusion partners. Where a name states a change or a piece, a line headed by the entry shows the natural chain unless it says otherwise.
UniProt Q9HE07: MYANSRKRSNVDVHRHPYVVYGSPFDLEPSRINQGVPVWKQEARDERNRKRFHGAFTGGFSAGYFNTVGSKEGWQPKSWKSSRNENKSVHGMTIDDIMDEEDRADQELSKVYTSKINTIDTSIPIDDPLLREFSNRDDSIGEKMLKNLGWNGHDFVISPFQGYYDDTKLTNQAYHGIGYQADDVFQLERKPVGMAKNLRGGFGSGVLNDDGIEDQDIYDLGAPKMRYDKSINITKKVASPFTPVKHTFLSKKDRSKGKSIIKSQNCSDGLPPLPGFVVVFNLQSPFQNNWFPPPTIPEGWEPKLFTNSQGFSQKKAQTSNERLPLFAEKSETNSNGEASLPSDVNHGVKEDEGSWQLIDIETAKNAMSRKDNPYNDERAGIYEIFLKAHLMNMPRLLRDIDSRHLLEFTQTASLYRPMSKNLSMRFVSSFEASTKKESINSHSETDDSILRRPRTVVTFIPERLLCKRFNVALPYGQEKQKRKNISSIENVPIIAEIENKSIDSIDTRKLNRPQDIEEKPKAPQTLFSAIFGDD
UniProt O14187: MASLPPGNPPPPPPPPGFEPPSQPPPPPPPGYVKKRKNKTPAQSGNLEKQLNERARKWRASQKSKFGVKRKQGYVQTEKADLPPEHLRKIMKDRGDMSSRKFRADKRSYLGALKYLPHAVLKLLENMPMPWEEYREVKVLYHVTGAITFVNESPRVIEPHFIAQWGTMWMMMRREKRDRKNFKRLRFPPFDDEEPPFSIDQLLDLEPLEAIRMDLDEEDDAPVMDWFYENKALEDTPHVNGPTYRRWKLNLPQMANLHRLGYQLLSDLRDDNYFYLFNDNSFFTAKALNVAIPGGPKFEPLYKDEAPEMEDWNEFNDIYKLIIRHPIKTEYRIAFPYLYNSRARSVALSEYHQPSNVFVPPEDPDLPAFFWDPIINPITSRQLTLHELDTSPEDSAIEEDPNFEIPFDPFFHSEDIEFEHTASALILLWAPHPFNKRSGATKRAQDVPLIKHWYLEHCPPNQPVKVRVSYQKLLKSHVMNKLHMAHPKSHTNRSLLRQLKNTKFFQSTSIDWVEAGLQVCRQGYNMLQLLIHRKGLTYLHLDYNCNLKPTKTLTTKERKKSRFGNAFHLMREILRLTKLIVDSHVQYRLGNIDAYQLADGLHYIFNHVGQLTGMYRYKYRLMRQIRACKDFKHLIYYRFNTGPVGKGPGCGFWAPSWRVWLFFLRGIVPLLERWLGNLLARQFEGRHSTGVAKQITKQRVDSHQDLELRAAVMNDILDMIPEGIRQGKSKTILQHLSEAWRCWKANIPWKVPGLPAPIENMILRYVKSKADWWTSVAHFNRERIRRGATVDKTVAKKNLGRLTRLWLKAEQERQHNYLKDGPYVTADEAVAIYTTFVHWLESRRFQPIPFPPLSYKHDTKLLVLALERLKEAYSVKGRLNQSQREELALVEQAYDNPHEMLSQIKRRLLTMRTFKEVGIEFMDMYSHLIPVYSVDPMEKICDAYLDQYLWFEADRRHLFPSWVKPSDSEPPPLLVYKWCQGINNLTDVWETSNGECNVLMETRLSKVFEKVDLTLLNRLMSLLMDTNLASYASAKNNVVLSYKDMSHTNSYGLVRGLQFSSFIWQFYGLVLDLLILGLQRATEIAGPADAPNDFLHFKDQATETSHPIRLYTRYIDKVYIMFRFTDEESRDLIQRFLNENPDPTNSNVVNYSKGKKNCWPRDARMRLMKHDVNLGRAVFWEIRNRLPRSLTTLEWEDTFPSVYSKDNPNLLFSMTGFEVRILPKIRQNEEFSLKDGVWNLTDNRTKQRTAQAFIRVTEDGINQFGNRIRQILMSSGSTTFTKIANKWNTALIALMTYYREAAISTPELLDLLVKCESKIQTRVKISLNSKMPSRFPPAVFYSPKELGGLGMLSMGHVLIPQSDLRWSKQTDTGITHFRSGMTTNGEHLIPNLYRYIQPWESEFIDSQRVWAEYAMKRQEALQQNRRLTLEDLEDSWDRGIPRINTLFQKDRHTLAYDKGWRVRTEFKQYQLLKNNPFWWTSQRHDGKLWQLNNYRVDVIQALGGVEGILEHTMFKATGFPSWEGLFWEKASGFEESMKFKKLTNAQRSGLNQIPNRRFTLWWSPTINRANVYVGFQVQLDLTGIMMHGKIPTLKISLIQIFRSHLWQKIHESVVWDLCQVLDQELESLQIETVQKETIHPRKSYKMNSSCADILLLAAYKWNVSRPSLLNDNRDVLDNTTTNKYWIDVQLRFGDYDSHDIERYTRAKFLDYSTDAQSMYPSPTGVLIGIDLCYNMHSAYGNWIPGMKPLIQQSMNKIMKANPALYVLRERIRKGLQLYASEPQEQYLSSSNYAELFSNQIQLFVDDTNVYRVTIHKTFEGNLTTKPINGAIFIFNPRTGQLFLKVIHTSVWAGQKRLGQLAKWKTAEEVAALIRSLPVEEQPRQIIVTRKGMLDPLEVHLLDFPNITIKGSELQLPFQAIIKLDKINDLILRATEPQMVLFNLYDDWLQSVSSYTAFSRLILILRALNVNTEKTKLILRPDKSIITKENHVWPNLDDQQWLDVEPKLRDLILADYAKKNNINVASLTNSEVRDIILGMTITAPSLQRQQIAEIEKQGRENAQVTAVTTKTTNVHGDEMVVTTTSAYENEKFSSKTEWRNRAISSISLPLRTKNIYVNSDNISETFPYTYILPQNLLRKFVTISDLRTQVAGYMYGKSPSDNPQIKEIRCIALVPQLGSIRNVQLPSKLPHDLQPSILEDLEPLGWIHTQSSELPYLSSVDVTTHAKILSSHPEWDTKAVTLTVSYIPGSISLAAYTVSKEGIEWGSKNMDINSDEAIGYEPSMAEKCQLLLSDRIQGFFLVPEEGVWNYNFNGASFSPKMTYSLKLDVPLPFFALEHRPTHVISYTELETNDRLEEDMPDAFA
UniProt O42945: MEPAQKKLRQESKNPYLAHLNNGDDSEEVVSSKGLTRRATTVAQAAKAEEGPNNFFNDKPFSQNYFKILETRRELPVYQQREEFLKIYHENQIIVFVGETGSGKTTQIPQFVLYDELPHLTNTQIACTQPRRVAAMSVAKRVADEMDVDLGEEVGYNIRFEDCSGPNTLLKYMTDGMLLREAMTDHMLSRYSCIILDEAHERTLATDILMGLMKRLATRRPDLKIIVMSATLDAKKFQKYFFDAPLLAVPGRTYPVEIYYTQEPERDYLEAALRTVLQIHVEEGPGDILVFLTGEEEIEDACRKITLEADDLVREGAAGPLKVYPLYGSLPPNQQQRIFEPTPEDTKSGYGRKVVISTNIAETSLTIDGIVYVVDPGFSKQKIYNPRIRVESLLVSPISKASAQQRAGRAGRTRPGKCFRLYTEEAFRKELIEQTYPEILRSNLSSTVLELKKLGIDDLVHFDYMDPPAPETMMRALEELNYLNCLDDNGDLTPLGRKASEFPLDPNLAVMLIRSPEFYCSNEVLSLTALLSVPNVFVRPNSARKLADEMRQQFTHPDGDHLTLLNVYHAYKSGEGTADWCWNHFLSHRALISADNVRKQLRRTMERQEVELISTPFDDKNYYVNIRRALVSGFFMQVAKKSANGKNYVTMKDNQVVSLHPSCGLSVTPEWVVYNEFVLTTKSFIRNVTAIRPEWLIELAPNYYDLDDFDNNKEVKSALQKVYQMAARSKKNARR
UniProt Q9UT24: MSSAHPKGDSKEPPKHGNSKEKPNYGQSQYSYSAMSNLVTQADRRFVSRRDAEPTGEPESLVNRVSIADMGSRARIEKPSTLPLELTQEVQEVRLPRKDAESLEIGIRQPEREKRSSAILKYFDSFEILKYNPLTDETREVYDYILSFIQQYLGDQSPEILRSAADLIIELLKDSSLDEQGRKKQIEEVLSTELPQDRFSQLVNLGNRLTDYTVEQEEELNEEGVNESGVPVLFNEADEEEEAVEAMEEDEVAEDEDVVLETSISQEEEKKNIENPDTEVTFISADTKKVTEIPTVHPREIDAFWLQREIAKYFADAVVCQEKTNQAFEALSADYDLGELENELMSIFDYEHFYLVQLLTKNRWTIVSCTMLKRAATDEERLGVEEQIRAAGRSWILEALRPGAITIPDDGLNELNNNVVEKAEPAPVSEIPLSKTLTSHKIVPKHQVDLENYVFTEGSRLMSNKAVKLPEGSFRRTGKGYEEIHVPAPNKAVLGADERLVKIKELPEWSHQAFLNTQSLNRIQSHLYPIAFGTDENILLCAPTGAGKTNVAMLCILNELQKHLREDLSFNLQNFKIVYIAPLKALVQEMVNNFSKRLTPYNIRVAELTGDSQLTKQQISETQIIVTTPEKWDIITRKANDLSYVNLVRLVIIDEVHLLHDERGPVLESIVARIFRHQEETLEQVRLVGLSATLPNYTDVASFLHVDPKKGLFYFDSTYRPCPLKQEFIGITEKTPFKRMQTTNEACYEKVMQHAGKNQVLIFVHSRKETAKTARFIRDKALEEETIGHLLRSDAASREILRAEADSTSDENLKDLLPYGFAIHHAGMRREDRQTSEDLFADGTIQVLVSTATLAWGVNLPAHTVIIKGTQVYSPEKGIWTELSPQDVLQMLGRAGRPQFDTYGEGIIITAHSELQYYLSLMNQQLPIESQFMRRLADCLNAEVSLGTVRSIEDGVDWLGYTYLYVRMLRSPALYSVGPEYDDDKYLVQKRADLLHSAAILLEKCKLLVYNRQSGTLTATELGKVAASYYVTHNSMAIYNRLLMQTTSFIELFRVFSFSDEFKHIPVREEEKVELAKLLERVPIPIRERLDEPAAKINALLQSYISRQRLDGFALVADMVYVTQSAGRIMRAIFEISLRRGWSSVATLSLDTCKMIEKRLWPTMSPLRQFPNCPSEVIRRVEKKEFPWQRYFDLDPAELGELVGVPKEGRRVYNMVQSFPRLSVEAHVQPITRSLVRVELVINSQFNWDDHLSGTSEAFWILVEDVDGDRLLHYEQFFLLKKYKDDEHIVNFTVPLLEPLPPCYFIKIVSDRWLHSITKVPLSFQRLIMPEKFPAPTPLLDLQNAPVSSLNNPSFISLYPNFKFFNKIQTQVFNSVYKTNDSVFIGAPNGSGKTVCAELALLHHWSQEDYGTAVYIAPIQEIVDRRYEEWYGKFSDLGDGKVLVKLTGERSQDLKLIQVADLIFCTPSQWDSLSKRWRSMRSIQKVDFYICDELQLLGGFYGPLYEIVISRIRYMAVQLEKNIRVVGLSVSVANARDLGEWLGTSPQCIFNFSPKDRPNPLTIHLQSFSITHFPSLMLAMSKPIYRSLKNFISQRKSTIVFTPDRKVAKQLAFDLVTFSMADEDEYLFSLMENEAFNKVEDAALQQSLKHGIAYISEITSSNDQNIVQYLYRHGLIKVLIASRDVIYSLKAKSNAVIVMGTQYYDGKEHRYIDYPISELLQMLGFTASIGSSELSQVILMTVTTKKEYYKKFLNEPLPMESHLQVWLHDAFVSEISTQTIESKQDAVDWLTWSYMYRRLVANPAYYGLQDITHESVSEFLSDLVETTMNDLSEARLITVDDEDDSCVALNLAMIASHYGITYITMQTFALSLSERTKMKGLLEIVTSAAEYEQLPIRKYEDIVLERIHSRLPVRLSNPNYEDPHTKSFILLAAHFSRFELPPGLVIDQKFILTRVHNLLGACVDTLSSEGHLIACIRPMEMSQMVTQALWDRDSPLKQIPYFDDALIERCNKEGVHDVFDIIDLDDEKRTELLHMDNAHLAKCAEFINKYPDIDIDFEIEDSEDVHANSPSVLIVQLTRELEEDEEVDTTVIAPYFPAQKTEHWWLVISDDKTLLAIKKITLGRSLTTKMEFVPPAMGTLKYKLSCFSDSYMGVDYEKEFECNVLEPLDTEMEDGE

T1: Gih35-TAP (S. pombe) (UniProt Q9HE06)
T1 sequence: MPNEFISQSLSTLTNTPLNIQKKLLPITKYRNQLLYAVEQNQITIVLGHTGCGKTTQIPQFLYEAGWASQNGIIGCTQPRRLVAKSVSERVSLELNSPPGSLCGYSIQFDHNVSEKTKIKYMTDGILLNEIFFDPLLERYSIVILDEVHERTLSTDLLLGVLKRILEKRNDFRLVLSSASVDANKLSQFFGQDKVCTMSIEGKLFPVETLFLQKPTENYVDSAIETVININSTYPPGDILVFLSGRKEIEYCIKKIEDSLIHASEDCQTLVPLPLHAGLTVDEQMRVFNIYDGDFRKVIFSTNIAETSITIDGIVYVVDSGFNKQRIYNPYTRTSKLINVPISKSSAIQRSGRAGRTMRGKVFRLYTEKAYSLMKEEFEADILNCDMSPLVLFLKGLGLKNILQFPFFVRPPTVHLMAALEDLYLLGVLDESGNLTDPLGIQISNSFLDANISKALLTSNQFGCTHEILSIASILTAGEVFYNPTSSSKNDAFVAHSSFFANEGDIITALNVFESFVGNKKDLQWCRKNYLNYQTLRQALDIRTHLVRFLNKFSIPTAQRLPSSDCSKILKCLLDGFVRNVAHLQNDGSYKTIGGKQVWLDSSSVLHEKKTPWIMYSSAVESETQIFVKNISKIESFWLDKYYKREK

B1: Gih35 (protein, UniProt Q9HE06 1-647)
chain: T1 sequence
B2: Prp19 complex subunit Cdc5 (protein, UniProt P39964 1-757)
chain: MVVLKGGAWKNTEDEILKAAVSKYGKNQWARISSLLVRKTPKQCKARWYEWIDPSIKKTEWSREEDEKLLHLAKLLPTQWRTIAPIVGRTATQCLERYQKLLDDLEAKENEQLGLISGEGAEAAAPVNDPNSRLRFGEAEPNLETLPALPDAIDMDEDEKEMLSEARARLANTQGKKAKRKDREKQLELTRRLSHLQKRRELKAAGINIKLFRRKKNEMDYNASIPFEKKPAIGFYDTSEEDRQNFREKREADQKIIENGIRNNEMESEGRKFGHFEKPKPIDRVKKPNKDAQEEKMRRLAEAEQMSKRRKLNLPSPTVSQDELDKVVKLGFAGDRARAMTDTTPDANYSTNLLGKYTQIERATPLRTPISGELEGREDSVTIEVRNQLMRNREQSSLLGQESIPLQPGGTGYTGVTPSHAANGSALAAPQATPFRTPRDTFSINAAAERAGRLASERENKIRLKALRELLAKLPKPKNDYELMEPRFADETDVEATVGVLEEDATDRERRIQERIAEKERLAKARRSQVIQRDLIRPSVTQPEKWKRSLENEDPTANVLLKEMIALISSDAINYPFGNSKVKGTANKVPDLSNEEIERCRLLLKKEIGQLESDDYIQFEKEFLETYSALHNTSSLLPGLVIYEEDDEDVEAAEKFYTNDIQRDLAKKALECNKLENRVYDLVRSSYEQRNFLIKKISHAWKALQTERKNLTCYEFLYNQERLALPNRLEAAEIELSKMQQIEAYAQQDYARVTGQN
B3: U5 snRNP GTPase subunit Cwf10 (protein, UniProt O94316 1-984)
chain: MMEEDLYDEFGNYIGPENEEDEEELFPQAPSPTIAQVPSFEEVIPDEELEDVERAEEMALSHLEPQNAVVLHEDKQYYPSAEEVYGSNVDIMVQEQDTQPLSQPIIEPIRHKRIAIETTNVPDTVYKKEFLFGLLTGTDDVRSFIVAGHLHHGKSALLDLLVYYTHPDTKPPKRRSLRYTDTHYLERERVMSIKSTPLTLAVSDMKGKTFAFQCIDTPGHVDFVDEVAAPMAISDGVVLVVDVIEGVMINTTRIIKHAILHDMPIVLVLNKVDRLILELRLPPNDAYHKLRHVIDEVNDNICQISKDLKYRVSPELGNVCFASCDLGYCFTLSSFAKLYIDRHGGIDVDLFSKRLWGDIYFDSKTRKFAKQSLDGSGVRSFVHFILEPLYKLHTLTISDEAEKLKKHLSSFQIYLKPKDYLLDPKPLLQLICASFFGFPVGFVNAVTRHIPSPRENAARKASQSYIGPINSSIGKAILEMSREESAPLVMHVTKLYNTVDANNFYAFARVYSGQVKKGQKVKVLGENYSLEDEEDMVVAHIAEICVPCARYRLHVDGAVAGMLVLLGGVDNSISKTATIVSDNLKDDPYIFRPIAHMSESVFKVAVEPHNPSELPKLLDGLRKTNKSYPLSITKVEESGEHTIFGTGEMYMDCLLYDLRTLYSEIEIRVSDPVARFCETAVDTSSIKCFSDTPNKKNRITMVVEPLEKGISNDIENGKVNINWPQKRISEFFQKNYDWDLLASRSIWAFGPDDRGTNILRDDTLSTDVDKNVLNSVKEYIKQGFQWGTREGPLCDETIRNVNFRLMDVVLAPEQIYRGGGQIIPTARRVCYSSFLTASPRLMEPVYMVEVHAPADSLPIIYDLLTRRRGHVLQDIPRPGSPLYLVRALIPVIDSCGFETDLRVHTQGQAMCQMVFDHWQVVPGDPLDKSIKPKPLEPARGSDLARDFLIKTRRRKGLVEDVSTTRYFDQEMIDSLKEAGVVLSL
B4: ATP-dependent RNA helicase Prp22 (protein, UniProt O42643 1-1168)
chain: MDDLKELEYLSLVSKVASEIRNHTGIDDNTLAEFIINLHDQSKNYDEFKNNVLSCGGEFTDSFLQNISRLIKEIKPKDDIPTDNVNNGSNSVNGASHDLDSKDVDKQHQRKMFPGLSIPNSTNNLRDRPALMDNAMDELEELSTLAKTRRNDRDSRRDERHYLNGIRERRERSISPSFSHHSRTSISGQSHSSRSSRGPLLNAPTLYGIYSGVVSGIKDFGAFVTLDGFRKRTDGLVHISNIQLNGRLDHPSEAVSYGQPVFVKVIRIDESAKRISLSMKEVNQVTGEDLNPDQVSRSTKKGSGANAIPLSAQNSEIGHVNPLETFTSNGRKRLTSPEIWELQQLAASGAISATDIPELNDGFNTNNAAEINPEDDEDVEIELREEEPGFLAGQTKVSLKLSPIKVVKAPDGSLSRAAMQGQILANDRREIRQKEAKLKSEQEMEKQDLSLSWQDTMSNPQDRKFAQDVRDSAARQLTSETPSWRQATRNANISYGKRTTLSMKEQREGLPVFKLRKQFLEAVSKNQILVLLGETGSGKTTQITQYLAEEGYTSDSKMIGCTQPRRVAAMSVAKRVAEEVGCRVGEEVGYTIRFEDKTSRMTQIKYMTDGMLQRECLVDPLLSKYSVIILDEAHERTVATDVLFGLLKGTVLKRPDLKLIVTSATLDAERFSSYFYKCPIFTIPGRSYPVEIMYTKQPEADYLDAALMTVMQIHLSEGPGDILVFLTGQEEIDTSCEILYERSKMLGDSIPELVILPVYSALPSEIQSRIFEPAPPGGRKVVIATNIAETSLTIDGIYYVVDPGFVKQSCFDPKLGMDSLIVTPISQAQARQRSGRAGRTGPGKCYRLYTESAYRNEMLPSPIPEIQRQNLSHTILMLKAMGINDLLNFDFMDPPPAQTMIAALQNLYALSALDDEGLLTPLGRKMADFPMEPQLSKVLITSVELGCSEEMLSIIAMLSVPNIWSRPREKQQEADRQRAQFANPESDHLTLLNVYTTWKMNRCSDNWCYEHYIQARGMRRAEDVRKQLIRLMDRYRHPVVSCGRKRELILRALCSGYFTNVAKRDSHEGCYKTIVENAPVYMHPSGVLFGKAAEWVIYHELIQTSKEYMHTVSTVNPKWLVEVAPTFFKFANANQVSKTKKNLKVLPLYNRFEKPDEWRISKQRKGGR
B5: ubiquitin-protein ligase E4 Prp19 (protein, UniProt O14011 1-488)
chain: MFCSISGETPKEPVISRVSGNVYEKRLIEQVIRETSKDPVTQQECTLEDLVPVKVPDFVRPRPPSATSLPALLSLFQEEWDSVALEQFELRRNLTETKQELSTALYSLDAALRVISRLTKERDEAREALAKFSDNIGTVSSKTIEVQEVEMGESDDQLKTSLRSTVEKTFQELSSKRKRTKLQPKWATDDAVSQLLQATPSTILENLETESTTSFFPSPENSSFVLCLHKDELLCLDIQSNSTLKIFEGSALACCWLTSSKIAVATADAISIFEFPVSSSGLQSVGEPTSSIPIDEKVNFLQAHPSGEYLLAASNEKCYIFSLKSQVYNITVAQHITSLAVHPDGNLFVAGLENGELRFFETSSGNELTKFGPHSSPVKTLQFGENGYWLVVTTNDDSDIFIWDLRKSELVQKIPLQTKVAAVSLDITSQLLVSSDGETLYVHIYVKSSKSWRCMSQTHVSSISNLVWLNELHQLLFSTSNGAILRLG

Legend:
Assay in all cases: affinity purification with mass spectrometry; tandem affinity purification of TAP-tagged bait from cycling S. pombe cells (IPP150 buffer: 50 mM Tris pH 8.0, 150 mM NaCl, 10% glycerol, 0.1% NP-40; IgG Sepharose, TEV cleavage, Calmodulin Sepharose, EGTA elution), LC-MS/MS; wild-type cells, also Gih35-TAP from wdr83Δ cells and Wdr83-TAP from gih35Δ cells
Gih35-TAP (S. pombe) = target: T1, Gih35-TAP (S. pombe)
Gpl1-TAP (S. pombe) = Gpl1-TAP (S. pombe) (UniProt Q9HE07)
Wdr83-TAP (S. pombe) = target: Wdr83-TAP (S. pombe)

Molecule	binding (Gih35-TAP (S. pombe))	binding (Gpl1-TAP (S. pombe))	binding (Wdr83-TAP (S. pombe))
ATP-dependent RNA helicase Mtl1 (S. pombe)	binds	–	–
U5 snRNP complex subunit Spp42 (from UniProt O14187 1-2363)	binds	binds	–
Gpl1 (from UniProt Q9HE07)	binds	–	–
ATP-dependent RNA helicase Prp43 (from UniProt O42945 1-735)	binds	binds	–
U5 snRNP complex ATPase subunit Brr2 (from UniProt Q9UT24 1-2176)	binds	binds	–
B1	–	binds	–
B2	binds	binds	binds
B3	binds	binds	binds
B4	binds	binds	binds
B5	binds	binds	binds
